Source: PubChem BioAssay AID1159578 (Peter MacCallum Cancer Centre, 2015)
The whole screen tested about 18,000 reagents; this is an unselected part. About 1,030 of them (5.7%) were called active. 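Inactive calls also include pools with fewer than 3300 nuclei, whose migration was not assessed.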 The raw values are shown without normalisation. A number with no mark means an inactive call. Further read-outs or replicates are left out here.

Screen: 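Knock-downs that alter how fast lymphatic endothelial cells migrate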 (primary screen)
System: human lymphatic endothelial cells
Reagent: siRNA pool against human genes, 40 nM
Duration: 48 h after transfection
Measurement: 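Cells stained with dye and imaged after a scratch; covered wound area and nuclei counted, duplicates averaged, migration set against mock wells and turned into a robust z-score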
Direction: migration robust z-score: higher = faster migration into the scratch; nuclei per well: higher = more cells in the well
Active means: 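Pools averaging fewer than 3300 nuclei are never called; remaining pools count as changed when migration robust z lies outside -2 to 2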
Meaning of the calls: active = migration changed; inactive = no migration change, or too few cells

Against PLD4, the entry reads migration robust z-score 1.85; nuclei per well, duplicate mean 5115.
Against TNFRSF8, the values are migration robust z-score -2.31 (active); nuclei per well, duplicate mean 5400.
Against KLHL12, the values are migration robust z-score 0.16; nuclei per well, duplicate mean 4386.
Against RUSC1, the values are migration robust z-score -0.2; nuclei per well, duplicate mean 5277.
With knock-down of LSM3, the screen gave migration robust z-score 0.36; nuclei per well, duplicate mean 7722.
For CSGALNACT2, the entry reads migration robust z-score -0.67; nuclei per well, duplicate mean 6038.
Against USP44 the deposit lists migration robust z-score -0.11; nuclei per well, duplicate mean 5400.
For STAC2, the entry reads migration robust z-score -0.85; nuclei per well, duplicate mean 5646.
CDK8 showed migration robust z-score -0.42; nuclei per well, duplicate mean 5131.

2 entries from above, arranged by “migration robust z-score”, highest first:
LSM3 | migration robust z-score = 0.36; nuclei per well, duplicate mean = 7722
CSGALNACT2 | migration robust z-score = -0.67; nuclei per well, duplicate mean = 6038

The listing continues.
TAS2R5 gave migration robust z-score 2.44 (active); nuclei per well, duplicate mean 6924.
For PWP1 the deposit lists migration robust z-score 0.18; nuclei per well, duplicate mean 5739.
Knock-down of HACD1 resulted in: migration robust z-score -1.58; nuclei per well, duplicate mean 4977.
PDIA5 scored migration robust z-score -0.02; nuclei per well, duplicate mean 5017.
For S1PR2, the entry reads migration robust z-score 0.24; nuclei per well, duplicate mean 5420.
